The source of these data is the supplement of paper PMC7666118.

Amino acid sequences for entries named in this document (tags omitted). A change or cut given only in a name is not applied to a line headed by its entry.
UniProt Q9H0N5: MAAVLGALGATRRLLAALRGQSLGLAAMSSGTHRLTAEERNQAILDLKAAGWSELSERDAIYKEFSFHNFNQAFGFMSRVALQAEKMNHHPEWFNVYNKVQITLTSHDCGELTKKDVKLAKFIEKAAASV
UniProt Q9BZL4: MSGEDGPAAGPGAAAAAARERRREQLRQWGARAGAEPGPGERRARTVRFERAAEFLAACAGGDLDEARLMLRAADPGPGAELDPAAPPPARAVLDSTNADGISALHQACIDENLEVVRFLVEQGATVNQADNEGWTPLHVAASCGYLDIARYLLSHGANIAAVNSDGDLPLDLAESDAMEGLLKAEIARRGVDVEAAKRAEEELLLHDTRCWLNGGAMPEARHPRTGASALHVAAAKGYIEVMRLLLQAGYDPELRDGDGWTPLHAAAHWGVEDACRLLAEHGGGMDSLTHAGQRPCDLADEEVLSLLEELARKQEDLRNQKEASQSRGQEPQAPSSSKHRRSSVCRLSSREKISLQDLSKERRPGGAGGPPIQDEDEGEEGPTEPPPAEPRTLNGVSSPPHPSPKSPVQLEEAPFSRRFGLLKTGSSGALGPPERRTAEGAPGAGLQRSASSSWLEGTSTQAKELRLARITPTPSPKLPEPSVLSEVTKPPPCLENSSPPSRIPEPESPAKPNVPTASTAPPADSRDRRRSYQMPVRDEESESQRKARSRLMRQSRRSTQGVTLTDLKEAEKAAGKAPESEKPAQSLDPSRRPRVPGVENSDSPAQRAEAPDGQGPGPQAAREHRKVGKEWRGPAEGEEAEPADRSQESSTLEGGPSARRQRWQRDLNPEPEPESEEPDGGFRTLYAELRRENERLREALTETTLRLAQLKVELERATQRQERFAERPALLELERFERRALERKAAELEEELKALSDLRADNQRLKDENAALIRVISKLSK
UniProt Q9UKF7: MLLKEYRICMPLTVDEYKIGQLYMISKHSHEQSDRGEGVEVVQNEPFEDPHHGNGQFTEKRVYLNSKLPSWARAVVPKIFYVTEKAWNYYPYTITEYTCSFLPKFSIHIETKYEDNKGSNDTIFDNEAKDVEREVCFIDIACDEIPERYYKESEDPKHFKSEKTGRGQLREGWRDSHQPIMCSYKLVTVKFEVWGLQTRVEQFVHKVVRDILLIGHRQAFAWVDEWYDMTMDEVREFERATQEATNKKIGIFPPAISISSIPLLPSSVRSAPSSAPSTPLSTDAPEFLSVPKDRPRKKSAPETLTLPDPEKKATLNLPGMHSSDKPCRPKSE
UniProt P30041: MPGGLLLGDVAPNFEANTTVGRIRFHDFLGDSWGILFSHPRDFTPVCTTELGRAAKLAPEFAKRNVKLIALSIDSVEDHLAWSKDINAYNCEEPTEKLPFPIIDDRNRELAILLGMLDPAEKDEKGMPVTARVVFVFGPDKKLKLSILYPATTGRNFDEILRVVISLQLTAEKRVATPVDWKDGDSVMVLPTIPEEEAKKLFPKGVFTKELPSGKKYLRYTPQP
UniProt O14974: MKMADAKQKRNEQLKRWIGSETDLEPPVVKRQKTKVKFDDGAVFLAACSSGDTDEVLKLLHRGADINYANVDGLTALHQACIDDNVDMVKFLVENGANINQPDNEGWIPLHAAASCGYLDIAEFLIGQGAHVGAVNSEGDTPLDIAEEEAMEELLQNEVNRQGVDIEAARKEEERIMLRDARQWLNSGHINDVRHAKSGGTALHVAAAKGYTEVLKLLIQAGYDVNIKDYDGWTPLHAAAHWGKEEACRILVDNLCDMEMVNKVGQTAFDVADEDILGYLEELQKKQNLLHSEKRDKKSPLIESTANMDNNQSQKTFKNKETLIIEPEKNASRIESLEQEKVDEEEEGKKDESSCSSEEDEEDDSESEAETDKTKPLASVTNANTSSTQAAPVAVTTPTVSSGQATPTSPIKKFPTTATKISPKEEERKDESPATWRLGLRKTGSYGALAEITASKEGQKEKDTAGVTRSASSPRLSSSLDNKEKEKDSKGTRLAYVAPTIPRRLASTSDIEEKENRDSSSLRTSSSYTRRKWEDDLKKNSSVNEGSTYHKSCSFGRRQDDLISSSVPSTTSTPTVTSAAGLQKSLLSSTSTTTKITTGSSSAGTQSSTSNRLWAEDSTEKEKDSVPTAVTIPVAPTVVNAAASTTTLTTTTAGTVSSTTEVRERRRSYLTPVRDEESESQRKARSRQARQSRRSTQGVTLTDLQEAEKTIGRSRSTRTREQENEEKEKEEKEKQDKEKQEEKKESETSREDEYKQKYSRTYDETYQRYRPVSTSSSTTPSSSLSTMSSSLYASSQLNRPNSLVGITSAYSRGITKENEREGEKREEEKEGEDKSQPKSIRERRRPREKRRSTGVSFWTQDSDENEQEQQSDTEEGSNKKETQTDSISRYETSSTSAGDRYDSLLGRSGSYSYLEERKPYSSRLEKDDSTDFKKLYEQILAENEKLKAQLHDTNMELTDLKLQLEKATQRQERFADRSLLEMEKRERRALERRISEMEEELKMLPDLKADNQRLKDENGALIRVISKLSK
UniProt O43924: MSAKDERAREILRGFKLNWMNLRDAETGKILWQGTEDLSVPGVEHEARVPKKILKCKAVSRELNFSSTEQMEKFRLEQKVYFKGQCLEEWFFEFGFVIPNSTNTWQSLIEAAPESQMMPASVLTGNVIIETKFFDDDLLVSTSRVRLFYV
UniProt P63098, whole entry, looked up: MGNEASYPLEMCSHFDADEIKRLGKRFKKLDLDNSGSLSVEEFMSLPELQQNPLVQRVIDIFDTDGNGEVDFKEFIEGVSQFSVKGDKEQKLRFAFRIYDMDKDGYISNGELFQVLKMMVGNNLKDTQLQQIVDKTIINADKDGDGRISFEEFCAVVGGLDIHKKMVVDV
UniProt Q96S99: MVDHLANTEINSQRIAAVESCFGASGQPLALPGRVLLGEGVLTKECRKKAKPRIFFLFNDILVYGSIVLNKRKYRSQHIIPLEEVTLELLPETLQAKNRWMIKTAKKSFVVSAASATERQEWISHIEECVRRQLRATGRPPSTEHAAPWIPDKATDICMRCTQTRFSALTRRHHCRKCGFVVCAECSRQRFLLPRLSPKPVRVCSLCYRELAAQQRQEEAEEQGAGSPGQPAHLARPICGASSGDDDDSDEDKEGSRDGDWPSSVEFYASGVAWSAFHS
UniProt Q9NRX4: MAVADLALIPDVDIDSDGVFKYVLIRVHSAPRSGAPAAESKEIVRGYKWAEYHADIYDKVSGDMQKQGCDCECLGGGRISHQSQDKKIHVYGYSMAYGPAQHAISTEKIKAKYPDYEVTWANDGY
UniProt O43164: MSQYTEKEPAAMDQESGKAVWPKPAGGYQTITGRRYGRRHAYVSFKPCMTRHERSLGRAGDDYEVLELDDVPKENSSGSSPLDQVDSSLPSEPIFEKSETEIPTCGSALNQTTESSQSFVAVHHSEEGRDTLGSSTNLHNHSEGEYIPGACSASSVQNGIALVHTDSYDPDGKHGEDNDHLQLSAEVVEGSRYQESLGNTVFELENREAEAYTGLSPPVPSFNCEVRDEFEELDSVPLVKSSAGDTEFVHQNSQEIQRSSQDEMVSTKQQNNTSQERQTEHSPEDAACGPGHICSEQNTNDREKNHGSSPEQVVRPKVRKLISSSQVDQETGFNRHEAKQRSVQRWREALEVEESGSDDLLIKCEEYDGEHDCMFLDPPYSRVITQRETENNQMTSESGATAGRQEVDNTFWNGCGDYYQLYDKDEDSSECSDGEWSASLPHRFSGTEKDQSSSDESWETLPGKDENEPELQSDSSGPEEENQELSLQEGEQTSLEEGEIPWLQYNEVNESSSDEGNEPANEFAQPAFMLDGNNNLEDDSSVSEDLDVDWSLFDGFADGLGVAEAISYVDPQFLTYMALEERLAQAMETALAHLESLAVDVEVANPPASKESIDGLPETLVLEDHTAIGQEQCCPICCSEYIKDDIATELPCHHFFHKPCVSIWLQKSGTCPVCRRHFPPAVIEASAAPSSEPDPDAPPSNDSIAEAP
UniProt Q9Y237, whole entry: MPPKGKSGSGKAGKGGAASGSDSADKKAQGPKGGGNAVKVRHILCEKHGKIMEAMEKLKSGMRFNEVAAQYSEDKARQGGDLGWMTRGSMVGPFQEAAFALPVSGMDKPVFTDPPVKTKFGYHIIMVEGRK
UniProt Q96CD2: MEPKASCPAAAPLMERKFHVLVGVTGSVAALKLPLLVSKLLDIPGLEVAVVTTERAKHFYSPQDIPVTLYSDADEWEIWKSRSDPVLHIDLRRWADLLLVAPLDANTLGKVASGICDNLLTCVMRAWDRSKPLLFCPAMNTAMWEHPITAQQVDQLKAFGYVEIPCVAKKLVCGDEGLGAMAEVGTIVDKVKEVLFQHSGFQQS
UniProt Q92576, whole entry: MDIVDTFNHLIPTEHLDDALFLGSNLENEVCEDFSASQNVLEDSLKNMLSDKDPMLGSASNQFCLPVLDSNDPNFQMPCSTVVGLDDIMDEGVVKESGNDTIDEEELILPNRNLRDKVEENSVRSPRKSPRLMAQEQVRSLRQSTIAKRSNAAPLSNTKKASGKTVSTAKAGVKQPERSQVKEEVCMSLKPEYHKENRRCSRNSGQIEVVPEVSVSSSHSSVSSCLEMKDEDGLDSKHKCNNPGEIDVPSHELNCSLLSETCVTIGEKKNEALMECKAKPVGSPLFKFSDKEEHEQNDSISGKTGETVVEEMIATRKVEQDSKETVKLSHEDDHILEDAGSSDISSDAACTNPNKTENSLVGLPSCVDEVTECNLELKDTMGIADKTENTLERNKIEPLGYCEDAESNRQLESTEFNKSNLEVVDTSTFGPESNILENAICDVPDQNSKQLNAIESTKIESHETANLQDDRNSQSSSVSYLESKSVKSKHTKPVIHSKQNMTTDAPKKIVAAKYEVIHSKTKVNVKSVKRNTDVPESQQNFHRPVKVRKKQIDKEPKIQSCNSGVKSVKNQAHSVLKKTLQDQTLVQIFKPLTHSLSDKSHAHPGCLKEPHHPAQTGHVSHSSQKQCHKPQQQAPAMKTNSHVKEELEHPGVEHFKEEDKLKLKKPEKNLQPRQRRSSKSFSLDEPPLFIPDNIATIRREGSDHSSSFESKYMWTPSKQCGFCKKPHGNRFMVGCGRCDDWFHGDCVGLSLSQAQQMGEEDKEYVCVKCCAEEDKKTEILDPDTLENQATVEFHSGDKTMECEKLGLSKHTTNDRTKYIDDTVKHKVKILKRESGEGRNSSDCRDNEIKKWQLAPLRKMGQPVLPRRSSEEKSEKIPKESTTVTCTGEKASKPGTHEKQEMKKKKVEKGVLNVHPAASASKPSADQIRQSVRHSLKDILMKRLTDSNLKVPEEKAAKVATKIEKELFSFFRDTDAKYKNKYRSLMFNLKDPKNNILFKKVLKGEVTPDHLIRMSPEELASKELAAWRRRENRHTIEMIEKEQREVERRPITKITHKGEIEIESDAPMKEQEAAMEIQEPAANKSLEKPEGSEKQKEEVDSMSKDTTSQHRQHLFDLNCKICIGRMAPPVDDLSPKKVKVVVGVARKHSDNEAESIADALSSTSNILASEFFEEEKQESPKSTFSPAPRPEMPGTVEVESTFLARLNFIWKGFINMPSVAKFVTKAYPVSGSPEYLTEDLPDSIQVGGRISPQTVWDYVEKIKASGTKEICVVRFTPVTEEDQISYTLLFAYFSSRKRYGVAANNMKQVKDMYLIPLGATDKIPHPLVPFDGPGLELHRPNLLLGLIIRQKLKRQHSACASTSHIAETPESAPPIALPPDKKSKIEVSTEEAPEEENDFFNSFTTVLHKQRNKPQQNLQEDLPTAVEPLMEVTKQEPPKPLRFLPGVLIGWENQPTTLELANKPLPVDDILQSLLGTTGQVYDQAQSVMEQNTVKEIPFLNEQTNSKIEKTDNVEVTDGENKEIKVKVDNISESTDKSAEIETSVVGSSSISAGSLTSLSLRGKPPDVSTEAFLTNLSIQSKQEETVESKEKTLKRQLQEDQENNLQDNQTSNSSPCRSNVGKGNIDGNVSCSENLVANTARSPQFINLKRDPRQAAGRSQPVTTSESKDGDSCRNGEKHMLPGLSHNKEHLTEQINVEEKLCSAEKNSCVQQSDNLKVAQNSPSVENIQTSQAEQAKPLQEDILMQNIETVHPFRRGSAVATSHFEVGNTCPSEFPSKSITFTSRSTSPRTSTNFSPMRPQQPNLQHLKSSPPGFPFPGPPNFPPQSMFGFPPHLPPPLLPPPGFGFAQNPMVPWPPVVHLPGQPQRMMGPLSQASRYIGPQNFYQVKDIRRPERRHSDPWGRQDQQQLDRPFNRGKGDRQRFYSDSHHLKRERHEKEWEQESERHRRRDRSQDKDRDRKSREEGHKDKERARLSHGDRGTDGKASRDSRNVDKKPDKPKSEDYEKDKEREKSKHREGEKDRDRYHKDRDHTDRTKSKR
UniProt P00491: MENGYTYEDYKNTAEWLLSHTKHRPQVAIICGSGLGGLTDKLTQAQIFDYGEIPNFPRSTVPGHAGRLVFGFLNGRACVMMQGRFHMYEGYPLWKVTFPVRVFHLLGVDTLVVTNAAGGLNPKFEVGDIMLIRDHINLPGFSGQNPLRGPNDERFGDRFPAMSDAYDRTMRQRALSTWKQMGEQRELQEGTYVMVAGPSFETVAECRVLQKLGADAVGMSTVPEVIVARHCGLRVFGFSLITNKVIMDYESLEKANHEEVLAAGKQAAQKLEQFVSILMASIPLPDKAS

Compound in this experiment: Nc1nc2c(ncn2[C@@H]2O[C@H](COP(=O)(O)OP(=O)(O)OP(=O)(O)O)[C@@H](O)[C@H]2O)c(=O)[nH]1
The experiment in a line: dose-dependent thermal stabilisation call (2D-TPP, DLPTP, 10% FDR) (binary (1 = stabilised)); higher = stabilised by the compound. Particulars: system: Jurkat gel-filtered lysate; concentration range 1-500 µM.

This is one part of the list.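 How the source made its calls: active = dose-dependent thermal stabilisation significant by F-test of dose-response against flat model at 10% FDR; inactive = not significant.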

In the case of PLEKHB1 (UniProt Q9UF11), the “dose-dependent thermal stabilisation call” value is inactive: 0.

In the case of PPP3CC (UniProt P48454), the “dose-dependent thermal stabilisation call” value is inactive: 0.

With PCBP2 (UniProt Q15366), the “dose-dependent thermal stabilisation call” value is inactive: 0.

On to PHF23 (UniProt Q9BUL5), for which the “dose-dependent thermal stabilisation call” value is inactive: 0.

With PPFIA1 (UniProt Q13136), the “dose-dependent thermal stabilisation call” value was inactive: 0.

As for PCBD2 (UniProt Q9H0N5), the “dose-dependent thermal stabilisation call” value was inactive: 0.

Consider POLD2 (UniProt P49005), for which the “dose-dependent thermal stabilisation call” value was inactive: 0.

Turning to POLR3E (UniProt Q9NVU0), the “dose-dependent thermal stabilisation call” value was inactive: 0.

On to PLCB2 (UniProt Q00722), for which the “dose-dependent thermal stabilisation call” value was inactive: 0.

Take PPM1A (UniProt P35813): the “dose-dependent thermal stabilisation call” value was inactive: 0.

Consider PDPR (UniProt Q8NCN5), for which the “dose-dependent thermal stabilisation call” value is active: 1.

Consider PPIE (UniProt Q9UNP9), for which the “dose-dependent thermal stabilisation call” value is inactive: 0.

Consider PPP1R12C (UniProt Q9BZL4), for which the “dose-dependent thermal stabilisation call” value is inactive: 0.

For PPWD1 (UniProt Q96BP3), the “dose-dependent thermal stabilisation call” value was active: 1.

Regarding POGLUT1 (UniProt Q8NBL1), the “dose-dependent thermal stabilisation call” value is inactive: 0.

Regarding PITPNC1 (UniProt Q9UKF7), the “dose-dependent thermal stabilisation call” value was inactive: 0.

With PPP4R3A (UniProt Q6IN85), the “dose-dependent thermal stabilisation call” value is inactive: 0.

As to PRDX6 (UniProt P30041), the “dose-dependent thermal stabilisation call” value was inactive: 0.

Consider PEBP1 (UniProt P30086), for which the “dose-dependent thermal stabilisation call” value is inactive: 0.

Turning to PPFIA3 (UniProt O75145), the “dose-dependent thermal stabilisation call” value was inactive: 0.

Consider PPP1R12B (UniProt O60237), for which the “dose-dependent thermal stabilisation call” value is inactive: 0.

As to PPP1R12A (UniProt O14974), the “dose-dependent thermal stabilisation call” value was inactive: 0.

In the case of POLR2C (UniProt P19387), the “dose-dependent thermal stabilisation call” value is inactive: 0.

As for PGK1 (UniProt P00558), the “dose-dependent thermal stabilisation call” value was inactive: 0.

For the target PDE6D (UniProt O43924), the “dose-dependent thermal stabilisation call” value is active: 1.

Regarding PPIB (UniProt P23284), the “dose-dependent thermal stabilisation call” value is inactive: 0.

PPP3R1 (UniProt P63098): the “dose-dependent thermal stabilisation call” value is inactive: 0.

Consider PLIN3 (UniProt O60664), for which the “dose-dependent thermal stabilisation call” value is inactive: 0.

As to PLEKHF1 (UniProt Q96S99), the “dose-dependent thermal stabilisation call” value is active: 1.

Consider PHPT1 (UniProt Q9NRX4), for which the “dose-dependent thermal stabilisation call” value was inactive: 0.

For the target PLEKHA7 (UniProt Q6IQ23), the “dose-dependent thermal stabilisation call” value was inactive: 0.

Take PJA2 (UniProt O43164): the “dose-dependent thermal stabilisation call” value was inactive: 0.

With PLA2G15 (UniProt Q8NCC3), the “dose-dependent thermal stabilisation call” value is inactive: 0.

Take PIN4 (UniProt Q9Y237): the “dose-dependent thermal stabilisation call” value was inactive: 0.

For POLD3 (UniProt Q15054), the “dose-dependent thermal stabilisation call” value is inactive: 0.

For the target PIK3CD (UniProt O00329), the “dose-dependent thermal stabilisation call” value is active: 1.

As for PIN1 (UniProt Q13526), the “dose-dependent thermal stabilisation call” value is inactive: 0.

Consider PNN (UniProt Q9H307), for which the “dose-dependent thermal stabilisation call” value is inactive: 0.

Take PLRG1 (UniProt O43660): the “dose-dependent thermal stabilisation call” value was inactive: 0.

With PDE12 (UniProt Q6L8Q7), the “dose-dependent thermal stabilisation call” value is inactive: 0.

For the target PDCD6IP (UniProt Q8WUM4), the “dose-dependent thermal stabilisation call” value was inactive: 0.

Consider PITHD1 (UniProt Q9GZP4), for which the “dose-dependent thermal stabilisation call” value was inactive: 0.

Regarding POLR2K (UniProt P53803), the “dose-dependent thermal stabilisation call” value was inactive: 0.

Regarding POLA2 (UniProt Q14181), the “dose-dependent thermal stabilisation call” value was inactive: 0.

With POP7 (UniProt O75817), the “dose-dependent thermal stabilisation call” value was inactive: 0.

As to PPP1R8 (UniProt Q12972), the “dose-dependent thermal stabilisation call” value is inactive: 0.

Regarding PITPNA (UniProt Q00169), the “dose-dependent thermal stabilisation call” value is inactive: 0.

Turning to PDSS1 (UniProt Q5T2R2), the “dose-dependent thermal stabilisation call” value is inactive: 0.

Take PIAS2 (UniProt O75928): the “dose-dependent thermal stabilisation call” value was active: 1.

Take PDCD10 (UniProt Q9BUL8): the “dose-dependent thermal stabilisation call” value is inactive: 0.

Turning to POLR3F (UniProt Q9H1D9), the “dose-dependent thermal stabilisation call” value is inactive: 0.

As to PPCDC (UniProt Q96CD2), the “dose-dependent thermal stabilisation call” value was inactive: 0.

In the case of PGM1 (UniProt P36871), the “dose-dependent thermal stabilisation call” value was inactive: 0.

In the case of PFAS (UniProt O15067), the “dose-dependent thermal stabilisation call” value is inactive: 0.

PMF1 (UniProt Q6P1K2): the “dose-dependent thermal stabilisation call” value is inactive: 0.

With PHF3 (UniProt Q92576), the “dose-dependent thermal stabilisation call” value was inactive: 0.

Regarding PLEKHA1 (UniProt Q9HB21), the “dose-dependent thermal stabilisation call” value is active: 1.

Regarding PPP4R2 (UniProt Q9NY27), the “dose-dependent thermal stabilisation call” value is inactive: 0.

Consider PI4KB (UniProt Q9UBF8), for which the “dose-dependent thermal stabilisation call” value is inactive: 0.

With PPIF (UniProt P30405), the “dose-dependent thermal stabilisation call” value is inactive: 0.

For PPP4R3B (UniProt Q5MIZ7), the “dose-dependent thermal stabilisation call” value was inactive: 0.

For PBX2 (UniProt P40425), the “dose-dependent thermal stabilisation call” value is inactive: 0.

For PITPNB (UniProt P48739), the “dose-dependent thermal stabilisation call” value was inactive: 0.

PINX1 (UniProt Q96BK5): the “dose-dependent thermal stabilisation call” value is inactive: 0.

Turning to PML (UniProt P29590), the “dose-dependent thermal stabilisation call” value was active: 1.

For the target PCM1 (UniProt Q15154), the “dose-dependent thermal stabilisation call” value is inactive: 0.

Regarding PPP2R2A (UniProt P63151), the “dose-dependent thermal stabilisation call” value was inactive: 0.

With PIK3R4 (UniProt Q99570), the “dose-dependent thermal stabilisation call” value was inactive: 0.

In the case of PNP (UniProt P00491), the “dose-dependent thermal stabilisation call” value is inactive: 0.

Take PDCL (UniProt Q13371): the “dose-dependent thermal stabilisation call” value is inactive: 0.

For PLA2G4B (UniProt P0C869), the “dose-dependent thermal stabilisation call” value is inactive: 0.

Regarding PCF11 (UniProt O94913), the “dose-dependent thermal stabilisation call” value is inactive: 0.
